The list shows only some results of the screen, not a fair sample: it is rich in T/C values a quarter to a half above the control, in often repeated tests (any T/C) and in doses without a T/C. Other doses and runs of a compound stand elsewhere. T/C: endpoint of the treated group in % of that of the vehicle group. Some entries give survivors of the animals treated and no T/C: the source files T/C as zero there, which appears to mark a toxic dose or a test without result, not a measured value. Some doses without a T/C left all or most animals alive at the check, yet need not have been tolerated: the source hardly ever lists a survival T/C far under the control, and the zero likely stands for such cases as well. Survivors were counted at the toxicity check, usually on the fifth day, unless a day is given; later deaths do not show. Schedules are NCI's codes, read here as Q, the interval in days (D) or hours (H), X, the number of doses. Some schedules carry Z or #; the key to these is not given. Where survival is the endpoint, the PubChem record calls one and a half times the control and up active, and a quarter to a half above the control has no call in these data; cut-offs in other NCI protocols can differ. Some T/C values are followed by the survivors on the day toxicity was checked, most often the fifth; where none is given, no animal had died by that day.
Tested on: L1210 leukemia ip in BDF1 mice, survival T/C
Assay: NCI In Vivo Anticancer Drug Screen. Data for tumor model L1210 Leukemia (intraperitoneal) in B6D2F1 (BDF1) mice
Conditions: T/C endpoint: mean survival time, higher T/C = longer survival
[1] = dose: 100.0 mg/kg/injection, schedule: Q01DX009 (ip), vehicle: saline with Tween-80
[2] = dose: 200.0 mg/kg/injection, schedule: Q01DX009 (ip), vehicle: saline with Tween-80
[3] = dose: 400.0 mg/kg/injection, schedule: Q01DX009 (ip), vehicle: saline with Tween-80
[4] = dose: 400.0 mg/kg/injection, schedule: Q01DX001 (ip), vehicle: saline
[5] = dose: 400.0 mg/kg/injection, schedule: Q04DX003 (ip), vehicle: saline with Tween-80
[6] = dose: 200.0 mg/kg/injection, schedule: Q04DX003 (ip), vehicle: saline with Tween-80
[7] = dose: 400.0 mg/kg/injection, schedule: Q04DX002 (ip), vehicle: saline
[8] = dose: 200.0 mg/kg/injection, schedule: Q01DX001 (ip), vehicle: carboxymethylcellulose (CMC)
[9] = dose: 400.0 mg/kg/injection, schedule: Q01DX001 (ip), vehicle: carboxymethylcellulose (CMC)
[10] = dose: 100.0 mg/kg/injection, schedule: Q01DX009 (ip), vehicle: saline
[11] = dose: 200.0 mg/kg/injection, schedule: Q04DX003 (ip), vehicle: Klucel (hydroxypropylcellulose) (HPC)
[12] = dose: 400.0 mg/kg/injection, schedule: Q04DX003 (ip), vehicle: Klucel (hydroxypropylcellulose) (HPC)
[13] = dose: 200.0 mg/kg/injection, schedule: Q04DX003 (ip), vehicle: saline
[14] = dose: 400.0 mg/kg/injection, schedule: Q04DX003 (ip), vehicle: saline

Question: What does the source list for `O=C(Nc1ccc(NC(=O)c2ccccc2)c2ccccc12)c1ccccc1`?
Answer: survivor count [1]: 6 of 6; survivor count [2]: 6 of 6; survivor count [3]: 6 of 6

Question: For `CCCN=C(N)c1ccc(N=C(N)c2ccc(N=C(N)c3ccc(C(N)=NCCC)cc3)cc2)cc1`, which T/C (dose: 7.5 mg/kg/injection, schedule: Q01DX Z (ip), vehicle: carboxymethylcellulose (CMC)) is on record?
Answer: 138 % of control

Question: What about the T/C (dose: 20.0 mg/kg/injection, schedule: Q01DX Z (ip), vehicle: carboxymethylcellulose (CMC)) of the same compound?
Answer: 140 % of control

Question: Which survivor count (dose: 100.0 mg/kg/injection, schedule: Q01DX001 (ip), vehicle: Klucel (hydroxypropylcellulose) (HPC)) does the source give for `Nc1nc(N)c(CCCOc2ccc(NC(=O)CBr)cc2)c(N)n1` here?
Answer: 1 of 6

Question: And the survivor count (dose: 200.0 mg/kg/injection, schedule: Q01DX001 (ip), vehicle: Klucel (hydroxypropylcellulose) (HPC))?
Answer: 0 of 6

Question: And the survivor count (dose: 400.0 mg/kg/injection, schedule: Q01DX001 (ip), vehicle: Klucel (hydroxypropylcellulose) (HPC))?
Answer: 0 of 6

Question: How did the survivor count (dose: 300.0 mg/kg/injection, schedule: Q01DX001 (sc), vehicle: steroid suspending solution) turn out when `CC12CCC3C(CCC4=CC(=O)CCC43C)C1CCCN2` (configuration not stated) was run?
Answer: 1 of 6

Question: With `O=C(O)CCl` as the compound, how does the survivor count (dose: 200.0 mg/kg/injection, schedule: Q01DX001 (ip), vehicle: saline) read?
Answer: 0 of 4

Question: And the survivor count [4]?
Answer: 0 of 4

Question: With `NC(=O)C[n+]1cccc(C(=O)Nc2ccc(Cl)cc2)c1` as the compound, how does the survivor count [5] read?
Answer: 3 of 6

Question: For `OC(C1COC(CBr)O1)C(O)C1COC(CBr)O1` (configuration not stated), which survivor count (dose: 400.0 mg/kg/injection, schedule: Q04DX002 (ip), vehicle: Klucel (hydroxypropylcellulose) (HPC)) is on record?
Answer: 1 of 3

Question: `N#CCC[P+](c1ccccc1)(c1ccccc1)c1ccccc1` was tested. Which survivor count [4] did it give?
Answer: 1 of 6

Question: `O=C1OC(=O)c2c1cccc2[N+](=O)[O-]` was tested. Which survivor count [2] did it give?
Answer: 3 of 6

Question: What about the survivor count [3] of the same compound?
Answer: 0 of 6

Question: `O=C1c2ccccc2C(=O)c2c(O)c3c(c(O)c21)CC=CC3` was tested. Which survivor count [6] did it give?
Answer: 6 of 6

Question: What about the survivor count (dose: 300.0 mg/kg/injection, schedule: Q04DX003 (ip), vehicle: saline with Tween-80) of the same compound?
Answer: 6 of 6

Question: What about the survivor count [5] of the same compound?
Answer: 6 of 6

Question: What does the source list for `Cc1c2ccccc2c(C)c2c1c(F)cc1ccccc12`?
Answer: T/C (dose: 75.0 mg/kg/injection, schedule: Q01DX001 (ip), vehicle: Klucel (hydroxypropylcellulose) (HPC)): 134 % of control; T/C (dose: 150.0 mg/kg/injection, schedule: Q01DX001 (ip), vehicle: Klucel (hydroxypropylcellulose) (HPC)): 125 % of control

Question: Which survivor count (dose: 100.0 mg/kg/injection, schedule: Q01DX Z (ip), vehicle: methylcellulose (MC)) does the source give for `COc1ccc(Nc2cc(N)nc(N)n2)cc1` here?
Answer: 2 of 6

Question: What about the survivor count (dose: 200.0 mg/kg/injection, schedule: Q01DX Z (ip), vehicle: methylcellulose (MC)) of the same compound?
Answer: 0 of 6

Question: What does the source list for `CCN(CC)CCCC(C)Nc1cccc2c1C(=O)c1c(c(O)c3ccccc3c1O)C2=O` (configuration not stated)?
Answer: survivor count (dose: 100.0 mg/kg/injection, schedule: Q04DX002 (ip), vehicle: saline): 3 of 3; survivor count (dose: 200.0 mg/kg/injection, schedule: Q04DX002 (ip), vehicle: saline): 0 of 3; survivor count [7]: 0 of 3

Question: `NC(=S)N/N=C1\C=CCCC1` was tested. Which survivor count (dose: 100.0 mg/kg/injection, schedule: Q01DX001 (ip), vehicle: carboxymethylcellulose (CMC)) did it give?
Answer: 0 of 4

Question: What about the survivor count [8] of the same compound?
Answer: 0 of 4

Question: And the survivor count [9]?
Answer: 0 of 4

Question: `OCc1ccn2c1C(O)CC2` (configuration not stated) was tested. Which T/C (dose: 66.0 mg/kg/injection, schedule: Q01DX009 (ip), vehicle: saline) did it give?
Answer: 147 % of control

Question: And the T/C [10]?
Answer: 149 % of control

Question: What about the survivor count (dose: 225.0 mg/kg/injection, schedule: Q01DX009 (ip), vehicle: saline) of the same compound?
Answer: 2 of 6

Question: And the survivor count (dose: 340.0 mg/kg/injection, schedule: Q01DX009 (ip), vehicle: saline)?
Answer: 0 of 6

Question: How did the survivor count (dose: 175.0 mg/kg/injection, schedule: Q01DX001 (ip), vehicle: saline) turn out when `CC1(C)N=C(N)N=C(N)N1c1ccc(CC(C(=O)Nc2cccc(S(=O)(=O)F)c2)c2ccccc2)cc1` (configuration not stated) was run?
Answer: 3 of 6

Question: What about the survivor count (dose: 350.0 mg/kg/injection, schedule: Q01DX001 (ip), vehicle: saline) of the same compound?
Answer: 0 of 6

Question: How did the survivor count [11] turn out when `O=C1C2C(C(=O)N1c1ccccc1)C1c3ccccc3C2C2CCCCN21` (configuration not stated) was run?
Answer: 1 of 6

Question: What about the survivor count [12] of the same compound?
Answer: 1 of 6

Question: For `CCCCC[N+](C)(C)CCOC(=O)C1C2CC3OC(=O)C1C3C2` (configuration not stated), which survivor count [13] is on record?
Answer: 4 of 4

Question: What about the survivor count [14] of the same compound?
Answer: 0 of 4

Question: `COc1ccc2c(C)[n+]3ccc4cc(OC)c(OC)cc4c3cc2c1` (tested in a mixture with another compound) was tested. Which T/C (dose: 10.0 mg/kg/injection, schedule: Q01DX009 (ip), vehicle: saline) did it give?
Answer: 127 % of control [9 of 10 alive]

Question: And the T/C (dose: 30.0 mg/kg/injection, schedule: Q01DX009 (ip), vehicle: saline)?
Answer: 129 % of control

Question: What about the T/C (dose: 50.0 mg/kg/injection, schedule: Q01DX009 (ip), vehicle: saline) of the same compound?
Answer: 128 % of control [5 of 6 alive]

Question: What about the T/C (dose: 80.0 mg/kg/injection, schedule: Q01DX009 (ip), vehicle: saline) of the same compound?
Answer: 130 % of control

Question: What does the source list for `CCCCCCCCSCCO`?
Answer: survivor count (dose: 100.0 mg/kg/injection, schedule: Q04DX003 (ip), vehicle: saline with Tween-80): 6 of 6; survivor count [6]: 6 of 6

Question: Which survivor count (dose: 400.0 mg/kg/injection, schedule: Q01DX009 (ip), vehicle: Klucel (hydroxypropylcellulose) (HPC)) does the source give for `O=C(N/N=C/c1ccco1)C1CCCO1` (configuration not stated) here?
Answer: 0 of 6

Question: What does the source list for `CCOC(=O)C(C(=O)O)(C(c1ccccc1)c1ccccc1)C(c1ccccc1)c1ccccc1`?
Answer: survivor count (dose: 150.0 mg/kg/injection, schedule: Q01DX001 (ip), vehicle: carboxymethylcellulose (CMC)): 0 of 6; survivor count (dose: 300.0 mg/kg/injection, schedule: Q01DX001 (ip), vehicle: carboxymethylcellulose (CMC)): 0 of 6

Question: What does the source list for `CN1CCN(C(c2ccccc2)c2ccc(Cl)cc2)CC1` (configuration not stated)?
Answer: survivor count [10]: 0 of 6; survivor count [13]: 0 of 4

Question: For `O=C(O)C1(O)C(Cl)(Cl)C(Cl)=C(Cl)C1(Cl)Cl`, which survivor count (dose: 200.0 mg/kg/injection, schedule: Q01DX009 (ip), vehicle: saline sonified) is on record?
Answer: 3 of 6

Question: And the survivor count [11]?
Answer: 1 of 6

Question: What about the survivor count [12] of the same compound?
Answer: 0 of 6

Question: How did the T/C [7] turn out when `C/C=C/C=C/COC(=O)CCCCCC` was run?
Answer: 133 % of control

Question: Which survivor count [1] does the source give for `O=C(Nc1ccccc1C(F)(F)F)Oc1ccc(Cl)cc1Cc1ccccc1` here?
Answer: 6 of 6

Question: What about the survivor count [2] of the same compound?
Answer: 6 of 6

Question: What about the survivor count [3] of the same compound?
Answer: 6 of 6

Question: With `C[N+]12CCCc3cc(CO)cc(c31)CCC2` as the compound, how does the survivor count (dose: 50.0 mg/kg/injection, schedule: Q01DX009 (ip), vehicle: Klucel (hydroxypropylcellulose) (HPC)) read?
Answer: 5 of 6

Question: What about the survivor count (dose: 100.0 mg/kg/injection, schedule: Q04DX003 (ip), vehicle: Klucel (hydroxypropylcellulose) (HPC)) of the same compound?
Answer: 0 of 6

Question: What about the survivor count [11] of the same compound?
Answer: 0 of 6

Question: And the survivor count [12]?
Answer: 0 of 6

Question: For `CN=C(N)NC`, which survivor count [5] is on record?
Answer: 5 of 6

Question: Which survivor count [8] does the source give for `O=C(O)C1C(c2ccccc2)=C(c2ccccc2)C(c2ccccc2)=C(c2ccccc2)C1C(=O)O` (configuration not stated) here?
Answer: 0 of 4

Question: What about the survivor count [9] of the same compound?
Answer: 1 of 4

Question: For `Cc1cccc(N2CCN(c3ccncc3N)CC2C)c1` (configuration not stated), which survivor count (dose: 150.0 mg/kg/injection, schedule: Q04DX003 (ip), vehicle: saline with Tween-80) is on record?
Answer: 0 of 6

Question: Which survivor count [5] does the source give for `Cc1cc(C)c(S(=O)(=O)NN)c(C)c1` here?
Answer: 3 of 6

Question: With `CC1C(=O)CC(=O)C1=O` (configuration not stated) as the compound, how does the survivor count [14] read?
Answer: 2 of 6

Reference: PubChem BioAssay AID248 (DTP/NCI, 2004)
